Some of these results come from one statement about several compounds together. For at least one compound, name, drawing or mass did not settle the structure.
What was measured:
[1] = test system: cell-autonomous Wnt signaling in mouse fibroblasts (L cells); conditions: Dodge et al., 2012; cited from earlier work
[2] = test system: posterior axis formation (Wnt/β-catenin dependent developmental process); test: Zebrafish posterior axis formation assay; assay type: in vivo
Procedure: Zebrafish embryos harboring a mCherry-based reporter of Wnt/β-catenin signaling (Moro, et al., 2012) were treated with increasing concentrations of IWP-L6 (FIG. 3 Compound 27) in the aquarium water. Fluorescence intensity of animals was quantified as before (Dodge et al., 2012). (FIG. 7B) Activity of the IWP compounds IWP-L6 (Compound 27), 30, 32, and 35 was measured using the posterior axis formation assay.

Row | SMILES | Porcn inhibitor activity (screen hits) [1] | potency relative to IWP-12 (7) [2] | potency relative to IWR-1 [2] [times]
1 | Cc1ccc2nc(NC(=O)CSc3nc4c(c(=O)n3C)SC(C)C4)sc2c1 (stereo not drawn) [IWP-12] | active Porcn inhibitors | – | –
2 | O=C(CSc1nc2c(c(=O)n1-c1ccccc1)SCC2)Nc1ccc(-c2ccccc2)cn1 [IWP-L6] | – | at least 10 times | ≥ 2.5
